# Results: patent US12433830B2, “Anti-aging compositions and methods of use thereof” (S.I.S. SHULOV INNOVATIVE SCIENCE LTD., priority 2019, dated 2025)
# Some of these results come from one statement about several compounds together. Where a SMILES comes first, the peptide text is derived from it. [ ]: non-standard residue; d: D form. The star is where a group is joined. pGlu = O=C1CC[C@@H](C(=O)O)N1; Octanoyl = CCCCCCCC(=O)*
# System: Mattek's EpiDerm™ X (EPI-606-X) reconstructed human epidermis tissue
# Test: In vitro skin permeation test, vertical diffusion cell (Franz cell)
# Assay type: in vitro ADME
# Settings: for skin permeation, % of the applied dose: 1% w/w peptide, 24 hrs, 32±1° C.
smiles,measurement,setting,value
"CCCCCCCC(=O)NCCCC[C@H](NC(=O)[C@H](Cc1c[nH]c2ccccc12)NC(=O)[C@H](CC(N)=O)NC(=O)[C@@H]1CCC(=O)N1)C(=O)O [ZEP3, pGlu-Asn-Trp-Lys(Octanoyl)-OH] ([pGlu]NWK(Octanoyl)-OH)",concentration in receptor fluid samples (below limit of quantitation),"all receptor fluid samples, 0-24 hrs",< 5 ng/mL
same,skin permeation,"control solution of reference standard, approx. 127 μg applied",below 0.02%
same,"skin permeation, % of the applied dose",cream formulation,below 0.02%
same,"skin permeation, % of the applied dose",ointment formulation,below 0.02%
